PubChem BioAssay AID743121 – NCATS | 2013
Here is a random part of about 26,000 deposited reagents. 167 of them (0.63%) were called active. 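Calls are per gene from RSA p-values that are not deposited; an individual active-marked siRNA can sensitise only weakly.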 The numbers tell different reagents against one gene apart. Further read-outs or replicates are left out here.

Purpose: 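Knock-downs that sensitise breast cancer cells to camptothecin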 (primary screen)
Cells: MDA-MB-231 cells, a human breast cancer line
Knock-down reagent: single siRNA against human genes, 20 nM siRNA (0.8 pmol per well)
Time to read-out: 120 h (drug added 48 h after transfection, read 72 h later)
Challenge: camptothecin 20 nM (about EC30) for 72 h; vehicle 0.1% DMSO in parallel plates
Read-out: 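CellTiter-Glo ATP signal, scaled to control siRNA as percent viability; sensitisation given as log2 of untreated divided by camptothecin-treated viability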
Scale: log2 vehicle/camptothecin viability: higher = stronger sensitisation to camptothecin; viability with camptothecin: higher = more viable cells
Hit rule: 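Each gene scored by redundant siRNA activity (RSA) over its individual siRNA ratios; a gene is called active at p < 0.001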

gene	reagent no.	log2 vehicle/camptothecin viability	viability with camptothecin (% of control)	outcome
CSNK1A1L	1	-0.0371	52.1	inactive
CSNK1A1L	2	-0.195	60.7	inactive
CSNK1A1L	3	-0.183	73.8	inactive
CSNK1A1L	4	0.761	40.8	inactive
COPS5	1	0.166	66.3	inactive
COPS5	2	-0.00515	83	inactive
COPS5	3	0.43	37.8	inactive
COPS5	4	1.53	27	inactive
TUBA3E	1	-0.211	70.4	inactive
TUBA3E	2	-0.501	89.5	inactive
NOS2	1	-0.626	54.4	inactive
NOS2	2	0.169	47.1	inactive
NOS2	3	-0.175	106	inactive
NOS2	4	-0.453	66.1	inactive
USP14	1	0.322	73.3	inactive
USP14	2	0.0273	108	inactive
USP14	3	-0.0748	115	inactive
USP14	4	-0.175	119	inactive
ARSB	1	-0.144	94.1	inactive
ARSB	2	0.41	44	inactive
ARSB	3	-0.0996	105	inactive
ARSB	4	0.0515	84.4	inactive
STK39	1	0.0768	60.4	inactive
STK39	2	-0.451	61.3	inactive
STK39	3	0.159	92.9	inactive
STK39	4	-0.602	99.5	inactive
LLGL2	1	0.472	36.4	inactive
LLGL2	2	0.117	46.8	inactive
LLGL2	3	-0.182	85.9	inactive
LLGL2	4	-0.033	82.3	inactive
SMN1	1	-0.289	73.3	inactive
SMN1	2	-0.0183	36.1	inactive
SMN1	3	-0.498	92.8	inactive
SMN1	4	-0.239	67	inactive
RAP2B	1	-0.0743	71.3	inactive
RAP2B	2	-0.481	70.5	inactive
RAP2B	3	-0.0705	105	inactive
RAP2B	4	-0.256	103	inactive

15 of these entries in another layout:
CSNK1A1L #1 | log2 vehicle/camptothecin viability: -0.0371; viability with camptothecin (% of control): 52.1; outcome: inactive
CSNK1A1L #2 | log2 vehicle/camptothecin viability: -0.195; viability with camptothecin (% of control): 60.7; outcome: inactive
CSNK1A1L #3 | log2 vehicle/camptothecin viability: -0.183; viability with camptothecin (% of control): 73.8; outcome: inactive
CSNK1A1L #4 | log2 vehicle/camptothecin viability: 0.761; viability with camptothecin (% of control): 40.8; outcome: inactive
COPS5 #1 | log2 vehicle/camptothecin viability: 0.166; viability with camptothecin (% of control): 66.3; outcome: inactive
COPS5 #2 | log2 vehicle/camptothecin viability: -0.00515; viability with camptothecin (% of control): 83; outcome: inactive
COPS5 #3 | log2 vehicle/camptothecin viability: 0.43; viability with camptothecin (% of control): 37.8; outcome: inactive
COPS5 #4 | log2 vehicle/camptothecin viability: 1.53; viability with camptothecin (% of control): 27; outcome: inactive
TUBA3E #1 | log2 vehicle/camptothecin viability: -0.211; viability with camptothecin (% of control): 70.4; outcome: inactive
TUBA3E #2 | log2 vehicle/camptothecin viability: -0.501; viability with camptothecin (% of control): 89.5; outcome: inactive
NOS2 #1 | log2 vehicle/camptothecin viability: -0.626; viability with camptothecin (% of control): 54.4; outcome: inactive
NOS2 #2 | log2 vehicle/camptothecin viability: 0.169; viability with camptothecin (% of control): 47.1; outcome: inactive
NOS2 #3 | log2 vehicle/camptothecin viability: -0.175; viability with camptothecin (% of control): 106; outcome: inactive
NOS2 #4 | log2 vehicle/camptothecin viability: -0.453; viability with camptothecin (% of control): 66.1; outcome: inactive
USP14 #1 | log2 vehicle/camptothecin viability: 0.322; viability with camptothecin (% of control): 73.3; outcome: inactive

Continued:
gene	reagent no.	log2 vehicle/camptothecin viability	viability with camptothecin (% of control)	outcome
AUP1	1	-0.195	74	inactive
AUP1	2	-0.268	70.3	inactive
AUP1	3	-0.137	93.2	inactive
MRGPRX4	1	0.772	24.2	inactive
MRGPRX4	2	-0.116	70.5	inactive
MRGPRX4	3	-0.00768	88.3	inactive
MRGPRX4	4	0.525	50	inactive
G3BP2	1	-0.631	96.2	inactive
G3BP2	2	0.0555	96.3	inactive
G3BP2	3	0.236	52.6	inactive
G3BP2	4	-0.197	66.3	inactive
NKD2	1	0.155	72.9	inactive
NKD2	2	0.171	53.5	inactive
NKD2	3	-0.134	97.3	inactive
NKD2	4	-0.15	54.2	inactive
CA3	1	-0.648	78.5	inactive
CA3	2	-0.646	78	inactive
CENPBD1P	1	-0.308	78.3	inactive
CENPBD1P	2	-0.478	74.2	inactive
CENPBD1P	3	-0.533	45.6	inactive
CENPBD1P	4	0.00581	79.9	inactive
NAGK	1	-0.523	61	inactive
NAGK	2	-0.629	78.1	inactive
NAGK	3	0.1	63	inactive
NAGK	4	0.286	43.5	inactive
GABBR1	1	0.321	28.1	inactive
GABBR1	2	0.0029	89.2	inactive
GABBR1	3	0.662	56.5	inactive
GABBR1	4	-0.0716	47.9	inactive
PHF8	1	-0.314	62.6	inactive
PHF8	2	-0.705	91.2	inactive
PHF8	3	-0.0846	60.8	inactive
CD63	1	-0.189	136	inactive
CD63	2	-0.356	71.1	inactive
CD63	3	-0.405	63.3	inactive
CD63	4	0.132	49	inactive
STX3	1	-0.151	92.3	inactive
STX3	2	-0.112	73.7	inactive
STX3	3	-0.165	107	inactive
EIF4A3	1	-0.505	5.65	inactive
EIF4A3	2	0.124	3.27	inactive
EIF4A3	3	-0.257	2.98	inactive
EIF4A3	4	-0.282	4.67	inactive
CRYGD	1	-0.372	67.6	inactive
CRYGD	2	-0.161	100	inactive
CRYGD	3	-0.128	110	inactive
SIGLEC6	1	-0.34	112	inactive
SIGLEC6	2	0.0238	60.9	inactive
SIGLEC6	3	-0.361	81.1	inactive
SIGLEC6	4	0.579	38.2	inactive
